This data set can be described thus: general procedure: peptide synthesis; Amide Resin, substitution degree 1.4. The following applies: whole synthesis, HPLC, detection wavelength 215 nm, scale of the general procedure 20 g resin.

In the case of CA-Gly-Pro-Gln-Gly-Pro-Gln-NH2, the “final purity (method not given)” value came out at 99.12%.

For the substance GA-Gly-Pro-Gln-Gly-Pro-Gln-NH2, the “final purity (method not given)” value is on record as 98.69%.

Values taken from patent publication US20240279275A1 (SHENZHEN WINKEY TECHNOLOGY CO., LTD, priority 2021, published 2024).
